Data as given in patent US20250313594 (published 2025).

Test: general procedure: solution-phase peptide synthesis
Details: for purity (crude or final not stated): 254 nm

Substance | purity (crude or final not stated) (coupling step, TFA) [%] | step yield (coupling step, TFA) [%] | other results
Boc-K(Boc)GD(OtBu)E(OtBu)E(OtBu)S(tBu)LA-OtBu | 86 | 55 | –
Cbz-L-Glu(Ot-Bu)-L-Glu(Ot-Bu)-L-Ser(t-Bu)-L-Leu-L-Ala-Ot-Bu | – | – | purity (crude or final not stated) (coupling step, TFA, run 1): 93% and 95%
Cbz-L-Gly-L-Asp(Ot-Bu)-L-Glu(Ot-Bu)-L-Glu(Ot-Bu)-L-Ser(t-Bu)-L-Leu-L-Ala-Ot-Bu | 90 | 64 | –
H-L-Lys-L-Gly-L-Asp-L-Glu-L-Glu-L-Ser-L-Leu-L-Ala-OH-TFA | – | – | final HPLC purity (late stage modification step, 215 nm, TFA salt): 98%; step yield (late stage modification step, TFA salt): 85%; isolated yield (whole synthesis, overall, TFA salt): total yield 13%

Values joined by “and” are separate entries in the source; they are usually repeats but may differ in a detail not shown here. Identical values can stand only once. *: point of attachment. Boc = CC(C)(C)OC(=O)*; OtBu = CC(C)(C)O*; tBu = CC(C)(C)*
